Publication PMC6151265
Results are given in words; binding and its absence hold for the method and conditions named. For part of these data: Binding calls can cover weak binding; strength is not graded here. For part of these data: In cells and extracts the contact can be indirect. For part of these data: Tags and fused reporters may be left off the sequences shown.

Chains of the proteins cited; added tags and fusions are not shown. Lines headed by an entry give the natural chain unless they say otherwise; changes in a name come on top.
UniProt P11279: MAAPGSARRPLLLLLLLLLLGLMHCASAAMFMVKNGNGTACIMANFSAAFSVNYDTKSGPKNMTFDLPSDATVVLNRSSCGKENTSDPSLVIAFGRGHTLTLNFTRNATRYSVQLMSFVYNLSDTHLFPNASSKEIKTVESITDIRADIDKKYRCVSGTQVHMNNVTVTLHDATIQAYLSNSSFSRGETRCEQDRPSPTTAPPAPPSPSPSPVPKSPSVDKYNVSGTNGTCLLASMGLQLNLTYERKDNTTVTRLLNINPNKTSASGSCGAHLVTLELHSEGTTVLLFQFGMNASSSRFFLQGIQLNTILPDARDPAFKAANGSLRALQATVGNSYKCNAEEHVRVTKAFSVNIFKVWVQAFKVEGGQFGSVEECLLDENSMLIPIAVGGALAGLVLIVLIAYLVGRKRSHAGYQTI

Columns and labels:
hPMEL^623-668 (human) = biological target: T1, hPMEL^623-668 (human) (UniProt P40967); assay: two-hybrid; Y2HGold yeast; cargo tails in pGBKT7 against AP-3 or AP-1 subunits; growth on −His (+2 or 10 mM 3AT) plates, 3–5 days at 30°C
T1 sequence: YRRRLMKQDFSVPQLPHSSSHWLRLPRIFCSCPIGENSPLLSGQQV

hLAMP-1^406-417 (human) = biological target: T2, hLAMP-1^406-417 (human) (UniProt P11279); assay: as above
T2 sequence: GRKRSHAGYQTI

GFP–rabenosyn-5 = biological target: T3, GFP–rabenosyn-5 (UniProt Q9H1K0); assay: co-IP; GFP-tagged bait expressed in HeLa cells, lysate (20 mM HEPES pH7.4, 100 mM KCl, 10 mM MgCl2, 5 mM EDTA, 1% Triton X-100, 100 µM GTPγS) on GFP-Trap_A beads 4–5 h at 4°C; immunoblotting of endogenous partners
T3 sequence: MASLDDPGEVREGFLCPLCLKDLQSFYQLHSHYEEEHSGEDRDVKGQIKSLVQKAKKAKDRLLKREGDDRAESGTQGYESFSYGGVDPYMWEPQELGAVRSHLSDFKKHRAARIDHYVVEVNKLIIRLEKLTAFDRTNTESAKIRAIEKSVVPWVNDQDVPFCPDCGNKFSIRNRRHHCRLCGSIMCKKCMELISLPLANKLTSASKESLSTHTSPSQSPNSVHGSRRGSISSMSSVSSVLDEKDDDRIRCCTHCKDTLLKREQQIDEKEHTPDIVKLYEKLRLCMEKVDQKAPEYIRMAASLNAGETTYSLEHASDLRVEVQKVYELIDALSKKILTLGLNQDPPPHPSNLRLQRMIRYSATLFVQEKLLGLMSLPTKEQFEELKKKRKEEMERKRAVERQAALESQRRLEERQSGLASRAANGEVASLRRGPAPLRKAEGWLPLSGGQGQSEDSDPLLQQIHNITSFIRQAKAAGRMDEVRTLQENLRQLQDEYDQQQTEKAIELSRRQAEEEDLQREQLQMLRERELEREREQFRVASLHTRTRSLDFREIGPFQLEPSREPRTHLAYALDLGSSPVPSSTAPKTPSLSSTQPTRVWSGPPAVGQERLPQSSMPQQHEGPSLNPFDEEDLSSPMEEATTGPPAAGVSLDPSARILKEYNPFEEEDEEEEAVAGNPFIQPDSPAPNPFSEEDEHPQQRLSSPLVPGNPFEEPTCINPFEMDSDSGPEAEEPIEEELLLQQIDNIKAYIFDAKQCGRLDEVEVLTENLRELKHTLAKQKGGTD

[1] = biological target: T4, Rab4 (endogenous, melanocytes) (mouse (endogenous in melan-Ink melanocytes)) (UniProt P56371); assay: co-IP; endogenous Rab4 from melan-Ink melanocyte lysate, anti-Rab4 antibody and Protein G–Sepharose 4B beads overnight at 4°C; immunoblotting
T4 sequence: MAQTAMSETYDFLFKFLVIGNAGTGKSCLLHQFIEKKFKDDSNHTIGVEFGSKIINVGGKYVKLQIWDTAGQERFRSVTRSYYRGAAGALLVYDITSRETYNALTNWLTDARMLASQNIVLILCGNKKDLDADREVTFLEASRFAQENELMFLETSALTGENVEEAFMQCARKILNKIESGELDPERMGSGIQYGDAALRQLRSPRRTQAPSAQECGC

binding (hPMEL^623-668 (human)) | Substance | also measured
no binding | AP-3 µ3 subunit (yeast two-hybrid) | binding (hLAMP-1^406-417 (human)): binds
– | AP-3 (endogenous, HeLa) (human (endogenous in HeLa)) (complex) | binding (GFP–rabenosyn-5): binds
– | AP-3 (endogenous, melanocytes) (mouse (endogenous in melanocytes)) (complex) | binding [1]: binds
no binding | AP-1 σ1 subunit (yeast two-hybrid) | –
no binding | AP-3 σ3 subunit (yeast two-hybrid) | –
no binding | AP-1 γ subunit (yeast two-hybrid) | –
no binding | AP-1 µ1 subunit (yeast two-hybrid) | binding (hLAMP-1^406-417 (human)): binds
